Results reported in PubChem BioAssay AID2551 (National Center for Advancing Translational Sciences (NCATS), 2010).
Among all 310,000 compounds or so, about 17,000 (5.5%) were called active. Inconclusive means that the source gave no clear call. Such entries were picked first, then a sample of the others. Calls come from the whole dose curve; as a rule, active = well fitted inhibition curve with a large enough effect; inconclusive = small, poorly fitted or top-dose-only effect, or effect the other way; inactive = no such curve, though single readings can be large or run the other way. Where the call is inconclusive, the potency comes from a doubtful curve fit.

Protein sequences, listed by entry. Tags and fused reporters are not part of them. Lines headed by an entry give the natural chain unless they say otherwise; changes in a name come on top.
UniProt P51450: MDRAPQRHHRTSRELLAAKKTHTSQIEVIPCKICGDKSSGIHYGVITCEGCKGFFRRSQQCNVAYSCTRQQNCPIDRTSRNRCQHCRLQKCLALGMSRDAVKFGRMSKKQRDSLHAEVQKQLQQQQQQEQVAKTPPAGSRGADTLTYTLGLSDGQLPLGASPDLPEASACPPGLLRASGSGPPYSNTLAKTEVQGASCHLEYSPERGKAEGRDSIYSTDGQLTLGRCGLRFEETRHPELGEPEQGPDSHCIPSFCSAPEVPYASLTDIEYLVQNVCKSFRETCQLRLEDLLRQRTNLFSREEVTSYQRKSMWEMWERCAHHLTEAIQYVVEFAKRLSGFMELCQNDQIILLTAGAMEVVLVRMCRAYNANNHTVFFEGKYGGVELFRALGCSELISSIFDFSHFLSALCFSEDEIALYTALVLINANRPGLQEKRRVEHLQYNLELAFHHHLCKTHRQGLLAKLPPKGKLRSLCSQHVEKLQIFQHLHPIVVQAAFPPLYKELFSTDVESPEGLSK

Target: Nuclear receptor ROR-gamma (Mus musculus) (UniProt P51450)
Assay: qHTS for inhibitors of ROR gamma transcriptional activity; note: nearly all actives have a fitted effect of over 60% in size
Conditions: Drosophila S2 Gal4-RORgamma UAS-luciferase reporter, 20 h; activity change, negative = inhibition: at 53.6 µM (top of the series)
Outline: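 Drosophila S2 cells stably expressing Gal4-DBD/mouse RORγ fusion under metallothionein promoter plus UAS-luciferase; compound 1 h, then 700 uM CuSO4 induction for 20 h at ambient temperature; inhibition read as reduced luminescence.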
% is set by controls: 0 for no effect and ±100 for the full control effect; potency is the fitted concentration of half-maximal effect.

Potency, inconclusive:
Cc1cc(N/N=C/c2ccncc2)nc2ccccc12 17.8 µM [inhibitor, single point]
CCC1CCc2c([nH]c3ccccc3c2=O)O1 (stereo not drawn) 14.1 µM [activator, single point]
Oc1ccc(Cl)cc1/C=N/c1nc2ccccc2[nH]1 14.1 µM [inhibitor, single point]
CN(CCOc1ccccc1)C(=S)Nc1ccc(OC(F)F)cc1 2.24 µM [inhibitor, single point]
Cc1ccccc1OCCCCc1c(C)n[nH]c1C 25.1 µM [inhibitor, single point]
CN(C)c1ccc(C2C=C(c3ccc(Cl)cc3OC(F)F)Nc3ncnn32)cc1 (stereo not drawn) 20 µM [inhibitor, single point]
CCCn1c(NCc2cccc(OC)c2O)nc2ccccc21 0.0891 µM [activator, full curve, poor fit]
O=C(NCc1n[nH]c(=S)n1Cc1ccccc1)c1ccccc1 12.6 µM [inhibitor, partial curve, poor fit]
O=C1c2ccccc2C(Nc2ccc3c(c2)OCO3)N1Cc1ccc2c(c1)OCO2 (stereo not drawn) 25.1 µM [activator, single point]
COC(=O)C1=CN(c2ccc(OC)cc2)C=C(C(=O)OC)C1c1cccc(F)c1 2.82 µM [activator, full curve]

Reprinted at random: 2 compounds from above, in no set order.
Potency, inconclusive:
O=C(NCc1n[nH]c(=S)n1Cc1ccccc1)c1ccccc1 12.6 µM [inhibitor, partial curve, poor fit]
CCC1CCc2c([nH]c3ccccc3c2=O)O1 (stereo not drawn) 14.1 µM [activator, single point]

Next part:

Potency, active:
Cc1cccc2nc(CSc3nc4cc([N+](=O)[O-])ccc4s3)cn12 20 µM
CCCN1CN(Cc2ccccc2)CNC1=S 6.31 µM
COc1ccccc1OCC(=O)NNC(=O)c1cnccn1 11.2 µM
Cc1cc(C)nc(-n2nc(C)cc2NC(=O)CNC2CCCCC2)n1 2.51 µM
CCOc1cccc(-c2c(C(=O)N/N=C/c3sccc3C)nnn2-c2nonc2N)c1 5.62 µM
CCCCCCC(=O)NNC(=O)c1c(O)c2ccccc2n(CC)c1=O 11.2 µM
CN1CCN(C(=O)c2ccc3c(=O)n(Cc4ccc(Cl)cc4)c(=S)[nH]c3c2)CC1 7.08 µM

Activity change, negative = inhibition, inactive:
CC(C)(C)c1ccc(OC(=O)Cn2c(C(F)(F)F)nc3ccccc32)cc1 23%
COc1ccc(OC)c(NC(=O)c2ccc(CN3CCOCC3)cc2)c1 17.6%
CCN(C(C)=O)c1ccc(Oc2nc(OC)cc(OC)n2)cc1 1.01%
S=C(NCC1CCCO1)N1CCN(c2nc(-c3ccccc3)cs2)CC1 (stereo not drawn) 39.9%
O=C(Cc1ccc(S(=O)(=O)N2CCOCC2)s1)Nc1ccccc1Br 21.7%
CC1CCN(S(=O)(=O)N2CCCC(C(=O)NCc3ccc(F)cc3)C2)CC1 (stereo not drawn) 0.468%
